Results reported in US20210299156A1 (priority 2020, published 2021).
At least one compound was matched to its structure with a doubt left.

Tested on: SARS-CoV-2
Assay type: cell-based

Row | Compound | interference between AS1411 and remdesivir in combination | interference between AS1411 and dexamethasone in combination
1 | CCC(CC)COC(=O)[C@H](C)N[P@](=O)(OC[C@H]1O[C@@](C#N)(c2ccc3c(N)ncnn23)[C@H](O)[C@@H]1O)Oc1ccccc1 [remdesivir, reference compound] | do not interfere with each other | 
2 | C[C@@H]1C[C@H]2[C@@H]3CCC4=CC(=O)C=C[C@]4(C)[C@@]3(F)[C@@H](O)C[C@]2(C)[C@@]1(O)C(=O)CO [dexamethasone, reference compound] |  | do not interfere with each other
